From the supplement of paper PMC10849652
This is one part of the list.

Amino acid sequences for entries named in this document (tags omitted). A change or cut given only in a name is not applied to a line headed by its entry.
UniProt Q9HD45: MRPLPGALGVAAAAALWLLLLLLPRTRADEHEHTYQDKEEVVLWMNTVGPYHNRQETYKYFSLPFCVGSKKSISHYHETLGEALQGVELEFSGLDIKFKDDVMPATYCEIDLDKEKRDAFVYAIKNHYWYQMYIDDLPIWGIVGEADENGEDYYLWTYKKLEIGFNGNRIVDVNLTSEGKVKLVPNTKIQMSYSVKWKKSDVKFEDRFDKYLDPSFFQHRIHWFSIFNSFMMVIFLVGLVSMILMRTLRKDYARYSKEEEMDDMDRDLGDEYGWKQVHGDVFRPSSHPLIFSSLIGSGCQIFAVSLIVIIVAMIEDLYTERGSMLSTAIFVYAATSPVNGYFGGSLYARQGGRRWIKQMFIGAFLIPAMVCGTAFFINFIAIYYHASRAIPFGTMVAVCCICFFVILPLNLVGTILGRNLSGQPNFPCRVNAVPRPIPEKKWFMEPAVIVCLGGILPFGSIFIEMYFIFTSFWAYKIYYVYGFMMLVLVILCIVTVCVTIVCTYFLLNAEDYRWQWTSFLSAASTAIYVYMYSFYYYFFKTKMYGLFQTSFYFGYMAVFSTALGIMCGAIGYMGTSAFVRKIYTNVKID
UniProt Q8TBQ9: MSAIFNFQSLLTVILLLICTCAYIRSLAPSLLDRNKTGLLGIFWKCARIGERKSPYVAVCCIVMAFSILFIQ
UniProt Q15363: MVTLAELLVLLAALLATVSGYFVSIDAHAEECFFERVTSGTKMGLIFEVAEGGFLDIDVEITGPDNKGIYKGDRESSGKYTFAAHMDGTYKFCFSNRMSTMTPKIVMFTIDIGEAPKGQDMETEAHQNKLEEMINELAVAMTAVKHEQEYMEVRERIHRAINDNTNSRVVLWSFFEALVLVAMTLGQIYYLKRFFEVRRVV
UniProt Q9NX00: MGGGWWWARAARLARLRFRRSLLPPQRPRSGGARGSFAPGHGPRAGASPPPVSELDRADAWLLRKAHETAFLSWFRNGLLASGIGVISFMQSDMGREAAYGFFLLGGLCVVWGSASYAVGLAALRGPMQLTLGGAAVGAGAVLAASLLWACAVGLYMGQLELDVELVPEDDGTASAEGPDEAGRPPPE
UniProt Q9Y2S6, whole entry, looked up: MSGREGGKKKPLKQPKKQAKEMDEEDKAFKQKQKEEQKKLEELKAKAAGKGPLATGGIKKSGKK
UniProt Q13445: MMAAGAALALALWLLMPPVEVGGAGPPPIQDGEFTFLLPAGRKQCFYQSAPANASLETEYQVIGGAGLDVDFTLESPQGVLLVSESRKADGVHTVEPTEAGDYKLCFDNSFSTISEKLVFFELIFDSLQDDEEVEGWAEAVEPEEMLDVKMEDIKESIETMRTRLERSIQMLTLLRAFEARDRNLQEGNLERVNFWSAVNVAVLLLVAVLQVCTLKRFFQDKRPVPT
UniProt Q96MH6: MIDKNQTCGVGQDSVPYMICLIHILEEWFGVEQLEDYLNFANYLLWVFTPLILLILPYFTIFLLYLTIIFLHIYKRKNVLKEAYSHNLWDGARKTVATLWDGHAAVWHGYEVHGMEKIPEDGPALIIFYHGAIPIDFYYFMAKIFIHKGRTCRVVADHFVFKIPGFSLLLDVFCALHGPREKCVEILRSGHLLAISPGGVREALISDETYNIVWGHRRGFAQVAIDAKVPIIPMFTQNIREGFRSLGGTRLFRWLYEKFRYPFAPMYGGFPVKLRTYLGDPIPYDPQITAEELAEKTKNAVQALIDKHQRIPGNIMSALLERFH
UniProt Q8N511: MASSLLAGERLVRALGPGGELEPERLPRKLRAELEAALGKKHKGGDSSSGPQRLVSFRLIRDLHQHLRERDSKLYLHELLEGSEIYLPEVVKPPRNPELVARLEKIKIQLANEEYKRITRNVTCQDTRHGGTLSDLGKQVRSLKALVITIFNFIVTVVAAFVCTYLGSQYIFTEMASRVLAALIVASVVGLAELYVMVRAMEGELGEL
UniProt Q5BJF2, whole entry, looked up: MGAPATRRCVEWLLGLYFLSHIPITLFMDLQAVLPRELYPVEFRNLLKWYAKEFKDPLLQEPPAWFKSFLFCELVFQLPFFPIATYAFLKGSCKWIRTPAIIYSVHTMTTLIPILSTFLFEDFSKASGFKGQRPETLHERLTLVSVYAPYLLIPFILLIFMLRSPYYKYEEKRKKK
UniProt Q9H7F4: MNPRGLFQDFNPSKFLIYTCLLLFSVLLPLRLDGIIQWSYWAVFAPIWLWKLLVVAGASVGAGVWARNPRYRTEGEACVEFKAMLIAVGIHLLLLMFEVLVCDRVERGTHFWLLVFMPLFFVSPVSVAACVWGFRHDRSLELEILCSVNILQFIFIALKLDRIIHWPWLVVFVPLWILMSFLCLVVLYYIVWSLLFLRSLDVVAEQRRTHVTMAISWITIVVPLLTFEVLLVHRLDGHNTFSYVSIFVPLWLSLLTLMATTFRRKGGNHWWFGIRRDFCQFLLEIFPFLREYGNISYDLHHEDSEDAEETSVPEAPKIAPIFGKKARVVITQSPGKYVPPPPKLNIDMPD
UniProt Q5BJD5: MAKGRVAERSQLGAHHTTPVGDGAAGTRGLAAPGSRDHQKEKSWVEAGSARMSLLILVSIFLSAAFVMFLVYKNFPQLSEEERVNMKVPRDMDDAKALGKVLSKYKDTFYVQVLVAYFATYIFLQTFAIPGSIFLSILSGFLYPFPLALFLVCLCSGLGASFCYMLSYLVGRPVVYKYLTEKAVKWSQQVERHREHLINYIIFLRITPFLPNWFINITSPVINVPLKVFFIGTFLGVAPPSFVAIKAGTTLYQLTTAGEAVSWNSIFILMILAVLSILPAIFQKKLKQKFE
UniProt Q9H3N1: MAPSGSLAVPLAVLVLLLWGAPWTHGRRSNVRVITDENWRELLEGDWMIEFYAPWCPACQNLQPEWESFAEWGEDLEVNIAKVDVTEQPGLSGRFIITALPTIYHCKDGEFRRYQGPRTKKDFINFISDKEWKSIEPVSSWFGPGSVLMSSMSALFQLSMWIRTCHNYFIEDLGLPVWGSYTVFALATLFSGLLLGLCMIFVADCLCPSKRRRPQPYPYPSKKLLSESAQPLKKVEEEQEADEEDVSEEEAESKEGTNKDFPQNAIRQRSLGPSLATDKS
UniProt Q9Y3Q3: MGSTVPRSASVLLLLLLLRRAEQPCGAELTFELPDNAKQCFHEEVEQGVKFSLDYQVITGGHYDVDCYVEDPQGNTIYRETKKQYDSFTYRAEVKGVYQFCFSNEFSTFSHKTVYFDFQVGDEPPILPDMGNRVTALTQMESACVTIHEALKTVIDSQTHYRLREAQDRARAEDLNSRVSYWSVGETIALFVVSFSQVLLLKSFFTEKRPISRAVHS
UniProt P42167: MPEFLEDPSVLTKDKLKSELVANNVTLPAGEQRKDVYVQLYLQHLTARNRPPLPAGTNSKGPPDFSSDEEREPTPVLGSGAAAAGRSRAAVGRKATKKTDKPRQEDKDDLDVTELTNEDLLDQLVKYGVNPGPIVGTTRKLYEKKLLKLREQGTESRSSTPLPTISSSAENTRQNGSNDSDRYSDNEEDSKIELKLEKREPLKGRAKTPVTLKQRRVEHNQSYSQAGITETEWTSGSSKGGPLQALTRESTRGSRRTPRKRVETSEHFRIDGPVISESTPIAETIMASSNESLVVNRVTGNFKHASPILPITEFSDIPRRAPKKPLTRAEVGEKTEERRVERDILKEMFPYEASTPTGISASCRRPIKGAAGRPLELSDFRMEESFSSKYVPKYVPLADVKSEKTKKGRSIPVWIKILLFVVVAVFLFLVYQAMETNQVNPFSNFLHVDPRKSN
UniProt P63313: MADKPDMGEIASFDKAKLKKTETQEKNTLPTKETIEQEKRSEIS
UniProt P57088: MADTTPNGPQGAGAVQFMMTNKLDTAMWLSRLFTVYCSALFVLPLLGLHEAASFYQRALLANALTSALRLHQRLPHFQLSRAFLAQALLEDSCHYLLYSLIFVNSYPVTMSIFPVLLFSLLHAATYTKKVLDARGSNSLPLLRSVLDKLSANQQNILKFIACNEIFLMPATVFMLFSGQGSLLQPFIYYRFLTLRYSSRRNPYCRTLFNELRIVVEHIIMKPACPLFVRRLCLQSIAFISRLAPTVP
UniProt Q7Z7H5: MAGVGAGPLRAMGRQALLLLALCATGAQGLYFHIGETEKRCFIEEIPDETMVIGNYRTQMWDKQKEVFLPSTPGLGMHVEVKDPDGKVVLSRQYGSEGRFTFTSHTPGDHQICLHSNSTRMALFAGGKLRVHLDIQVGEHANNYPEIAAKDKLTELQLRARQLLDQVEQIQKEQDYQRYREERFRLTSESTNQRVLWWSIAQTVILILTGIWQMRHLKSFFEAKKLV
UniProt Q9NVH6: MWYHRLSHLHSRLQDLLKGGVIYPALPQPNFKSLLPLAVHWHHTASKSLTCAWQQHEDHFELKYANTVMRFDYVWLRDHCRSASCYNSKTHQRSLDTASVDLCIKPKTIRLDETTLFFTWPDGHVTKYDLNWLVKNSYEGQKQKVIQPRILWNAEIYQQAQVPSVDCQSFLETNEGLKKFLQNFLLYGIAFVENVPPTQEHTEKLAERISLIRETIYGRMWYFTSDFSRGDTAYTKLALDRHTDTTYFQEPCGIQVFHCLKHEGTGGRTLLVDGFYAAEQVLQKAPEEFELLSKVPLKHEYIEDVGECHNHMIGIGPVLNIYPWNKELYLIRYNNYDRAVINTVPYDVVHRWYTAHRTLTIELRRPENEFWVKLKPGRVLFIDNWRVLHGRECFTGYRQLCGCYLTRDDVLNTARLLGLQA
UniProt P17152: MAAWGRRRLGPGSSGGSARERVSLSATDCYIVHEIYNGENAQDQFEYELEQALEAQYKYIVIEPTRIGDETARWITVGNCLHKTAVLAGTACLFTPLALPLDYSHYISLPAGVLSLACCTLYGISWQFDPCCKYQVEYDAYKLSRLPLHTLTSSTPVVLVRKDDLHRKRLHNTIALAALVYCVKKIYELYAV
UniProt P28289: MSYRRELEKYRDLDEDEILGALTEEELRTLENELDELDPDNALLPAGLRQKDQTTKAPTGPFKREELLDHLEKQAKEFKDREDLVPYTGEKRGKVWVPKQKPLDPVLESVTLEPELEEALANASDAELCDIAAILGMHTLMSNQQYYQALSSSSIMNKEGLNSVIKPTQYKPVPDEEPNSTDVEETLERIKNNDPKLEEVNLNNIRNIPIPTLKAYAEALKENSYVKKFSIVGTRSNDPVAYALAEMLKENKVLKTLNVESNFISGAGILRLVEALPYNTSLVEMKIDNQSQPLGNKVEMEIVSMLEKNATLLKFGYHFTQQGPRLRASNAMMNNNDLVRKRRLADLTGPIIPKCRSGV
UniProt Q9NZR1: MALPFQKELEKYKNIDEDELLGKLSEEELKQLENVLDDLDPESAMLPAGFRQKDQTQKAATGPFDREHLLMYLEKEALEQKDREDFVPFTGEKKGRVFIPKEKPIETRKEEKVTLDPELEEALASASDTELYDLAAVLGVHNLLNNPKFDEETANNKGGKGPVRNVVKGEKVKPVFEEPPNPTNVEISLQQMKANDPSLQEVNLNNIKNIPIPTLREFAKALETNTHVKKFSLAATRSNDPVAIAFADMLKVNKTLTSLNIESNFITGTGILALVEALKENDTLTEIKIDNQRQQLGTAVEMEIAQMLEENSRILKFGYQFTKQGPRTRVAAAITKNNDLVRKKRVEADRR
UniProt A5PLL7: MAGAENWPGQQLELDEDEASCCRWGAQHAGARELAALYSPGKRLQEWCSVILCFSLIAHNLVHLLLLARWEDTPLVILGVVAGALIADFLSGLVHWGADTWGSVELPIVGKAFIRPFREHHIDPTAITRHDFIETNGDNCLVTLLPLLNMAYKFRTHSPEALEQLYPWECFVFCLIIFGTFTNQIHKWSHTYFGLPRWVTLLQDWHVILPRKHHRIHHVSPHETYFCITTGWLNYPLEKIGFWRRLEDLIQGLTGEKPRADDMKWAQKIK
UniProt P49755: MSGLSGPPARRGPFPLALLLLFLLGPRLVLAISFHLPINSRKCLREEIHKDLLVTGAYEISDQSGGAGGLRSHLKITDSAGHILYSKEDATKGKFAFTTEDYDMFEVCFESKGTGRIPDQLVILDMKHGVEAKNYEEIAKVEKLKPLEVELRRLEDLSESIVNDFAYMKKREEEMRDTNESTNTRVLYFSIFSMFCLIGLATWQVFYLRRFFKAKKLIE
UniProt Q9BVT8: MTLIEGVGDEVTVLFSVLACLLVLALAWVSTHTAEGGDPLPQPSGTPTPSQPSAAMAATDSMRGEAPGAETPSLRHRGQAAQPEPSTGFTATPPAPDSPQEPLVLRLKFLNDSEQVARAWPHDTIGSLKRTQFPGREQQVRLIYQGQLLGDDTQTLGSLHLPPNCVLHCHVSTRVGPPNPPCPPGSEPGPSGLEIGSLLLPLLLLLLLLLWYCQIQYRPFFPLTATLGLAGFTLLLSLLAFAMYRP
UniProt Q9NYL9: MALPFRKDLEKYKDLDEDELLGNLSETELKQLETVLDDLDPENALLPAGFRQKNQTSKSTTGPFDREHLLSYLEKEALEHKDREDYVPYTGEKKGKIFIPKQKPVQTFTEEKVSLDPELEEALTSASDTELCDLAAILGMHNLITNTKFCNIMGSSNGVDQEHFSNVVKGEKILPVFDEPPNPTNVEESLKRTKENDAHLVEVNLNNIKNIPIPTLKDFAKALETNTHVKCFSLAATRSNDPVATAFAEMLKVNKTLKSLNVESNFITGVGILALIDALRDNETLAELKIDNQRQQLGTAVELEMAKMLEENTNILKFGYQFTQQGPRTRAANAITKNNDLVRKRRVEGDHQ

Compound: CN1C2=C(C3=C1C(=O)N(N=C3)CC4=CC(=CC=C4)N)SC(=C2)S(=O)C
Experiment: log2 fold change, soluble protein after heating vs DMSO (PISA); higher = thermal stabilisation; K562 cells, 10 uM, 30 min; active = over 0.2 and 3.5 SD of the protein, either way, in both replicates (recomputed)
How it was run: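 Quantification of soluble protein used TMTpro 16plex LC-MS/MS, with channel sums equalised. Samples were the supernatant after 21,000xg for 90 min of pooled aliquots from K562 cells (2×10^6 cells/mL) treated with 10 μM compound for 30 min, heated for 3 min over 48°C-58°C, and extracted in PBS with 0.5% NP-40 at 4°C. Values, from duplicates, describe thermal stability against control samples on a log2 fold-change scale.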

log2 fold change, inactive:
TM9SF3 (UniProt Q9HD45) -0.129
TMA16 (UniProt Q96EY4) 0.215
TMEM167A (UniProt Q8TBQ9) -0.068
TMED2 (UniProt Q15363) -0.006
TMC1 (UniProt Q8TDI8) -0.103
TMEM115 (UniProt Q12893) 0
TMEM160 (UniProt Q9NX00) 0.261
TMCO1 (UniProt Q9UM00) -0.024
TLN1 (UniProt Q9Y490) -0.031
TMA7 (UniProt Q9Y2S6) -0.071
TMX4 (UniProt Q9H1E5) 0.103
TMED1 (UniProt Q13445) -0.128
TMEM245 (UniProt Q9H330) -0.057
TMEM68 (UniProt Q96MH6) -0.012
TMEM199 (UniProt Q8N511) -0.048
TMEM62 (UniProt Q0P6H9) -0.033
TMEM97 (UniProt Q5BJF2) -0.031
TMEM185B (UniProt Q9H7F4) 0.067
TMEM209 (UniProt Q96SK2) -0.033
TMEM63A (UniProt O94886) -0.024
TMEM41B (UniProt Q5BJD5) 0.041
TMX1 (UniProt Q9H3N1) -0.014
TMED3 (UniProt Q9Y3Q3) -0.041
TM2D3 (UniProt Q9BRN9) 0.026
TMEM87A (UniProt Q8NBN3) -0.047
TMPO (UniProt P42167) -0.023
TMSB10 (UniProt P63313) -0.029
TMEM33 (UniProt P57088) -0.073
TMEM65 (UniProt Q6PI78) 0.002
TMED4 (UniProt Q7Z7H5) -0.081
TMLHE isoform 8 (UniProt Q9NVH6) -0.034
TMEM11 (UniProt P17152) -0.111
TMOD1 (UniProt P28289) 0.116
TMOD2 (UniProt Q9NZR1) 0.042
TMEM189 (UniProt A5PLL7) 0.003
TMED10 (UniProt P49755) -0.071
TMUB1 (UniProt Q9BVT8) 0.052
TMOD3 (UniProt Q9NYL9) -0.006
